In US20200199213A1:
Results are given in words; binding and its absence hold for the method and conditions named. Binding seen in cells or lysates may run through a third protein. Some entries that bind do so weakly or less than the wild type. Where a sequence is shown, tags or fusion partners need not be part of it.

Legend:
[1] = target: T1, ANGPTL3 fusion protein (human ANGPTL3, 3-Ala linker, FLAG-tag) after purification, SEQ ID NO:19 (human) (UniProt Q9Y5C1); assay: co-purification after co-expression in HEK293F: Ni-NTA capture through HIS-HSA-ANGPTL8, Superdex 200, PreScission cleavage, second Superdex 200; 4-20% TG TGX SDS-PAGE gel, Coomassie stained
T1 sequence: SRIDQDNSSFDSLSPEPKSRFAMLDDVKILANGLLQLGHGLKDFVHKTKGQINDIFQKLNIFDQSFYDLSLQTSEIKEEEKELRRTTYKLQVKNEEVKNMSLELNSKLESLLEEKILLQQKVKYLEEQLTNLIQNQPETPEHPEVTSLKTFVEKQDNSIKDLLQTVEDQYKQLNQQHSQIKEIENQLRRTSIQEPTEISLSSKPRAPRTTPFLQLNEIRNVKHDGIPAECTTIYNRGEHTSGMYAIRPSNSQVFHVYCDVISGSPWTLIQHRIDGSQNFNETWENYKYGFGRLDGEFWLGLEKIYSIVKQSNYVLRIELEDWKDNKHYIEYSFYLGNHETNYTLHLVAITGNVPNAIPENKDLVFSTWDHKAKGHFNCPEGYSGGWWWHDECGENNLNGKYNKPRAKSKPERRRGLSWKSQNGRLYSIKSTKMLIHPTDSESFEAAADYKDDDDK

[2] = target: T2, ANGPTL8 fusion protein after PreScission cleavage, SEQ ID NO:20 (human) (UniProt Q6UXH0); assay: co-expression, co-purification (Ni-NTA, size exclusion), SDS-PAGE
T2 sequence: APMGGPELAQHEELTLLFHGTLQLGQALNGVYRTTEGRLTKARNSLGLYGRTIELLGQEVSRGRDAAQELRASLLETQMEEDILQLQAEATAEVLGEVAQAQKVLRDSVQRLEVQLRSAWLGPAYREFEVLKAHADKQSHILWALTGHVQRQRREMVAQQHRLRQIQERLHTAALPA

B1: ANGPTL8 fusion protein after PreScission cleavage, SEQ ID NO:20 (protein)
chain: T2 sequence
[1]
  binding: binds

B2: ANGPTL3 fusion protein (human ANGPTL3, 3-Ala linker, FLAG-tag) after purification, SEQ ID NO:19 (protein)
chain: T1 sequence
[2]
  binding: binds
